Chains of the proteins cited; added tags and fusions are not shown.
UniProt P63104: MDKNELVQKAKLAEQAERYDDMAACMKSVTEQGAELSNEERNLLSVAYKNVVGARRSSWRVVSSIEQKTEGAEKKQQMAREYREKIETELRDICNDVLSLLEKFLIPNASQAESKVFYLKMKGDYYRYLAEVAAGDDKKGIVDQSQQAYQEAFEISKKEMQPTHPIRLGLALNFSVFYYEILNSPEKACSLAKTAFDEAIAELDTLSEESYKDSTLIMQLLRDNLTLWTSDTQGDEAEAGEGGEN

According to article doi:10.1101/2023.12.15.571360:

B1: Amer2 (protein, UniProt Q8CCJ4 1-672)
chain: METGRSRGGGAAVSERGGGARAGVCGRQEQAGALAADMDSHCECAAETPAAEPPSGKINKAAFKLFKKRKSGGTMPSIFGVKNKGDGKSSGPTGMVRSRTHDGLAEVLVLEGSKKEEPPGGSDHSGARPIPGPPKPSGPGLGSLASSSVAKSHSFFSLLKKNGRSETGKGDHAEASKAGGKQKRGLKGIFSSMRWHRRDKRGKEEEEKAVRAAGPGNLVLPGSLTASLECVKEEPPRAARRPDSPGQDASRHAAGEPAGGEQAPASAESAPERICLEAGSPTGSGDQSSRGEDAEGHRREEKPGAALESGAGEVQAAEDASKTGDVPIKTVPLVDSEGGSGRASAVPDPSSVDPPSDPSADRICLMFSDVTSLKSFDSLTGCGDIIADPEEEAGPSCDKHVPGPGKPVLSKKNASVVAYQGGGEEMASPDQVDDTYLPEFWDMLSQTEDQGQGTQEGAAKAATASDIKLAPETSSDTRCGEAAKDMSSVKRRRLHRIPIESQQKEEPKHPEKEHQEGVPNSDEGYWDSTTPGPEEESISNSSSSKKVVIPRDSDSGDALCDLYVEPEASPATLPATEDPPCLSRLKPVSPGTITCPLRTPGSLLKDSKIPISIKHLSNLPSSHPVVHQQPARSEVPRTKIPVSKVLVRRVSNRGLAGTTIRAAACHDSAKKL
modifications: phosphorylated; sites not shown (Supplementary Table 2)
B2: Epn2 (protein, UniProt Q8CHU3 1-595)
chain: MTTSSIRRQMKNIVNNYSEAEIKVREATSNDPWGPSSSLMTEIADLTYNVVAFSEIMSMVWKRLNDHGKNWRHVYKALTLLDYLIKTGSERVAQQCRENIFAIQTLKDFQYIDRDGKDQGINVREKSKQLVALLKDEERLKVERVQALKTKERMAQVATGVGSNQITFGRGSSQPNLSTSYSEQEYGKAGGSPASYHGSTSPRVSSELEQARPQTSGEEELQLQLALAMSREVAEQSSESVQTARGSKEERLRRGDDLRLQMALEESRRDTVKVPKKKEAKACCKPGSHSQQTTLLDLMDALPSSGPVTQKTEPWSAGASANQTNPWGGTVAPSNITDPWPSFGTKPAASVDPWGVPTTASTQSVPKNSDPWAASQQPASNAGKTTDAWGAAKPSSASGSFELFSNFNGTVKDDFSEFDNLRTSKKPAESGASVPPQDSRTTSPDLFESQSLTSASSKPSSARKTPESFLGPNAALVNLDSLVTKPAPPAQSLNPFLAPGAAAPAPVNPFQVNQPQPLTLNQLRGSPVLGSSASFGSGPGVETVAPMTSVAPHSSVGASGSSLTPLGPTAMNMVGSVGIPPSAAQSTGTTNPFLL
modifications: phosphorylated; sites not shown (Supplementary Table 2)
B3: Rims1 (protein, UniProt Q99NE5 1-1463)
chain: MSSAVGPRGPRPPTVPPPMQELPDLSHLTEEERNIIMAVMDRQKEEEEKEEAMLKCVVRDMAKPAACKTPRNAESQPHQPPLNIFRCVCVPRKPSSEEGGPDRNWRLHQQFESYKEQVRKIGEEARRYQGEHKDDAPTCGICHKTKFADGCGHLCSYCRTKFCARCGGRVSLRSNNEDKVVMWVCNLCRKQQEILTKSGAWFFGSGPQQPSQDGTLSDTATGAGSEVPREKKARLQERSRSQTPLSTAAVSSQDTASHGAPLDRNKGAEPSQQALGPEQKQASRSRSEPPRERKKAPGLSEQNGKGGQKSERKRVPKSVVQPGEGTADERERKERRETRRLEKGRSQDYPDRLEKREDGRVAEDEKQRKEEEGVSTPEYTSCEDVELESESVSEKGDLDYWLDPATWHSRETSPISSHPVTWQPSKEGDRLIGRVILNKRTTMPKESGALLGLKVVGGKMTDLGRLGAFITKVKKGSLADVVGHLRAGDEVLEWNGKPLPGATNEEVYNIILESKSEPQVEIIVSRPIGDIPRIPESSHPPLESSSSSFESQKMERPSISVISPTSPGALKDAPQVLPGQLSVKLWYDKVGHQLIVNVLQATDLPPRVDGRPRNPYVKMYFLPDRSDKSKRRTKTVKKLLEPKWNQTFVYSHVHRRDFRERMLEITVWDQPRVQDEESEFLGEILIELETALLDDEPHWYKLQTHDESSLPLPQPSPFMPRRHIHGESSSKKLQRSQRISDSDISDYEVDDGIGVVPPVGYRASARESKATTLTVPEQQRTTHHRSRSVSPHRGDDQGRPRSRLPNVPLQRSLDEIHPTRRSRSPTRHHDASRSLADHRSRHAESQYSSEPDSELLMLPRAKRGRSAECLHMTSELQPSLDRARSASTNCLRPDTSLHSPERERGRWSPSLARRRPASPRIQIQHASPENDRHSRKSERSSIQKQSRKGTASDADRVLPPCLSRRGYAIPRATDQPVIRGKHTTRSRSSEHSSIRTLCSMHHLAPGGSAPPSPLLTRTHRQGSPTQSPPADTSFGSRRGRQLPQVPVRSGSIEQASLVVEERTRQMKMKVHRFKQTTGSGSSQELDHEQYSKYNIHKDQYRSCDNASAKSSDSDVSDVSAISRASSTSRLSSTSFMSEQSERPRGRISSFTPKMQGRRMGTSGRAIIKSTSVSGEIYTLEHNDGSQSDTAVGTVGAGGKKRRSSLSAKVVAIVSRRSRSTSQLSQTESGHKKLKSTIQRSTETGMAAEMRKMVRQPSRESTDGSINSYSSEGNLIFPGVRVGPDSQFSDFLDGLGPAQLVGRQTLATPAMGDIQIGMEDKKGQLEVEVIRARSLTQKPGSKSTPAPYVKVYLLENGACIAKKKTRIARKTLDPLYQQSLVFDESPQGKVLQVIVWGDYGRMDHKCFMGVAQILLEELDLSSMVIGWYKLFPPSSLVDPTLTPLTRRASQSSLESSSGPPCIRS
modifications: phosphorylated; sites not shown (Table 1, Supplementary Tables 1 and 2)
B4: Reep1 (protein, UniProt Q8BGH4 1-201)
chain: MVSWIISRLVVLIFGTLYPAYYSYKAVKSKDIKEYVKWMMYWIIFALFTTAETFTDIFLCWFPFYYELKIAFVAWLLSPYTKGSSLLYRKFVHPTLSSKEKEIDDCLVQAKDRSYDALVHFGKRGLNVAATAAVMAASKGQGALSERLRSFSMQDLTTIRGDGAPAPSGPPPPGTGRSSGKHSQPKMSRSASESAGSSGTA
modifications: phosphorylated; sites not shown (Supplementary Table 2)
B5: Reep3 (protein, UniProt Q99KK1 1-254)
chain: MVSWMISRAVVLVFGMLYPAYYSYKAVKTKNVKEYVRWMMYWIVFALYTVIETVADQTLAWFPLYYELKIAFVIWLLSPYTRGASLIYRKFLHPLLSSKEREIDDYIVQAKERGYETMVNFGRQGLNLAAAAAVTAAVKSQGAITERLRSFSMHDLTAIQGDEPVGHRPYQTLPEAKRKGKQATESPAYGIPLKDGSEQTDEEAEGPFSDDEMVTHKALRRSQSMKSVKTIKGRKEVRYGSLKYKVKKRPQVYF
modifications: phosphorylated; sites not shown (Supplementary Table 2)
B6: Shisa7 (protein, UniProt Q8C3Q5 23-558)
chain: RPSNDTSSVAPGPLPALLAHLRRLTGALAGGGSAAGTSANATKTSPASGTGAAARAPPPAELCHGYYDVMGQYDATFNCSTGSYRFCCGTCHYRFCCEHRHMRLAQASCSNYDTPRWATTPPPLAGGAGGAGGAGGGPGPGQAGWLEGGRAGGAGGRGGEGPGGSTAYVVCGVISFALAVGVGAKVAFSKASRAPRAHREINVPRALVDILRHQAGPATRPDRARSSSLTPGLGGPDSMAPRTPKNLYNTMKPSNLDNLHYNVNSPKHHAATLDWRAMPPPSPSLHYSTLSCSRSFHNLSHLPPSYEAAVKSELNRYSSLKRLAEKDLDEAYLKRRQLEMPRGTLPLHALRRPGTGGGYRMDGWGGPEELGLAPAPNPRRVMSQEHLLGDGSRASRYEFTLPRARLVSQEHLLLSSPEALRQSREHLLSPPRSPALPPDPTTRASLAASHSNLLLGPGGPPTPLHGLPPSGLHAHHHHALHGSPQPAWMSDAGGGGGTLARRPPFQRQGTLEQLQFIPGHHLPQHLRTASKNEVTV
modifications: phosphorylated; sites not shown (Supplementary Table 2)
B7: Phactr1 (protein, UniProt Q2M3X8 1-580)
chain: MDYPKMDYFLDVESAHRLLDVESAQRFFYSQGAQARRATLLLPPTLMAASSEDDIDRRPIRRVRSKSDTPYLAEARISFNLGAAEEVERLAAMRSDSLVPGTHTPPIRRRSKFANLGRIFKPWKWRKKKSEKFKHTSAALERKISMRQSREELIKRGVLKEIYDKDGELSISNEDDSLENGQSLSSSQLSLPALSEMEPVPMPRDPCSYEVLQASDIMDGPDPGAPVKLPCLPVKLSPPLPPKKVLICMPVGGPELTLASYAAQKSSQQAVAQHHHTVLPSQMQHQLQYGSHGQHLPSSTGTLPMHPSGCRMIDELNKTLAMTMQRLESSEQRVPCSTSYHSSGLHSSDGITKAGPMGLPEIRQVPTVVIECDDNKENVPHEPDYEDSPCLYGREEEEEEEDEDDDASLYTSSLAMKVCRKDSLAIKLSNRPSKRELEEKNILPRQTDEERLELRQQIGTKLTRRLSQRPTAEELEQRNILKPRNEQEEQEEKREIKRRLTRKLSQRPTVEELRERKILIRFSDYVEVADAQDYDRRADKPWTRLTAADKAAIRKELNEFKSTEMEVHELSRHLTRFHRP
modifications: phosphorylated; sites not shown (Supplementary Table 2)

Biological target: GST-14-3-3ζ (UniProt P63104)
Experiment: affinity purification with mass spectrometry

| Binder | binding |
| --- | --- |
| B1 | binds |
| B2 | binds |
| B3 | binds |
| B4 | binds |
| B5 | binds |
| B6 | binds |
| B7 | binds |

No constants are given. Whether binding was seen depends on the method and setting. Binding seen in cells or lysates may run through a third protein. A yes stands for co-enrichment or nearness to the bait. Other partners may have been found. Tags and fused reporters may be left off the sequences shown.
